Results deposited as PubChem BioAssay AID504774 (Drosophila RNAi Screening Center, 2011).
The screen tested about 23,000 reagents; below is a random part of those that have a named target and a result. 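Values are quantile-normalised luminescence on an arbitrary scale; higher means more cells surviving MMS.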 A plus sign joins genes that one reagent is predicted to hit. Further read-outs or replicates are left out here.

Purpose: 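Knock-downs that shift viability of MMS-exposed cells relative to untreated ones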 (primary screen)
Cell system: Drosophila Kc167 cells
Knock-down reagent: long dsRNA against Drosophila genes, about 0.25 µg dsRNA per well
Time to read-out: about 6 days: 3 days knock-down, then 3 days with or without MMS
Conditions: methyl methanesulphonate 0.004% (w/v) for 3 days after knock-down
Detection: 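ATP-dependent luminescence as a measure of live cells in MMS-exposed wells, quantile normalised within each plate, with replicate values also given as a mean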
Reading the numbers: mean viability with MMS and viability with MMS: higher = more surviving cells after MMS

gene | DRSC id | mean viability with MMS | viability with MMS, replicate 1
mre11 | DRSC03570 | 3.84e6 | 4.31e6
mre11 | DRSC22628 | 3.62e6 | 4.12e6
CG14756 | DRSC06491 | 3.50e6 | 4.01e6
baz | DRSC20309 | 3.55e6 | 4.09e6
mfrn | DRSC15687 | 3.21e6 | 3.62e6
twf | DRSC15466 | 3.54e6 | 4.07e6
CG7950 + Rpp14a | DRSC16353 | 3.47e6 | 3.90e6
atlas | DRSC04183 | 3.43e6 | 3.67e6
Papss | DRSC11246 | 3.55e6 | 4.09e6
Vha44 | DRSC07572 | 3.20e6 | 3.72e6
Vha44 | DRSC07573 | 3.56e6 | 3.97e6
CG8202 | DRSC16396 | 3.70e6 | 4.17e6
CG12640 | DRSC17847 | 3.45e6 | 3.88e6
STUB1 | DRSC03282 | 3.57e6 | 3.97e6
Or13a | DRSC20265 | 3.44e6 | 3.96e6
PIG-G | DRSC06823 | 3.24e6 | 2.87e6
CG13250 | DRSC11698 | 3.71e6 | 4.15e6
CG15764 | DRSC18070 | 3.55e6 | 4.06e6
CG8312 | DRSC16406 | 3.55e6 | 4.02e6
Rpn8 | DRSC04624 | 2.89e6 | 3.44e6
CG18278 + CG30059 | DRSC05418 | 3.67e6 | 4.15e6
Sbat | DRSC00160 | 3.46e6 | 3.91e6
Snx17 | DRSC02884 | 3.74e6 | 4.56e6
Pop2 | DRSC10537 | 3.50e6 | 3.92e6
CG17560 | DRSC15242 | 3.46e6 | 3.95e6
Syn1 + CG7370 | DRSC22768 | 3.60e6 | 4.06e6
CG15022 | DRSC08476 | 3.67e6 | 4.52e6
CG14411 | DRSC19597 | 3.78e6 | 4.25e6

4 entries from above, showing only “viability with MMS, replicate 1”.
CG12640 [DRSC17847]: 3.88e6
STUB1 [DRSC03282]: 3.97e6
Or13a [DRSC20265]: 3.96e6
PIG-G [DRSC06823]: 2.87e6
